The data set relates to RelTt^NTD6/287. Kind of data set: smFRET of RelTt^NTD6/287 in the presence of nucleotides. Also noted: species or system T. thermophilus. The conditions noted are these: RelTt^NTD6/287, dyes at positions 6 and 287.

For the compound `Nc1ncnc2c1ncn2[C@@H]1O[C@H](COP(=O)(O)CP(=O)(O)OP(=O)(O)O)[C@@H](O)[C@H]1O` [APCPP], the “FRET-averaged inter-dye distance RDA E” value is listed as “remained in the closed conformation”. The same measure for `Nc1nc2c(ncn2[C@@H]2O[C@H](COP(=O)(O)OP(=O)(O)O)[C@@H](O)[C@H]2O)c(=O)[nH]1` [GDP]: 70 Å; for `Nc1nc2c(ncn2[C@@H]2O[C@H](COP(=O)(O)OP(=O)(O)O)[C@@H](OP(=O)(O)OP(=O)(O)O)[C@H]2O)c(=O)[nH]1` [ppGpp, guanosine 5′,3′ bispyrophosphate]: 64 Å.

Source of the values: US20230128889A1, “REL/RELA/SPOT SMALL MOLECULES MODULATORS AND SCREENING METHODS” (priority 2020, published 2023).
